IC50 data for one compound are collected here from publication PMC9891081 (Cell, 2022).

Chains of the proteins cited; added tags and fusions are not shown.
UniProt Q13936, whole entry: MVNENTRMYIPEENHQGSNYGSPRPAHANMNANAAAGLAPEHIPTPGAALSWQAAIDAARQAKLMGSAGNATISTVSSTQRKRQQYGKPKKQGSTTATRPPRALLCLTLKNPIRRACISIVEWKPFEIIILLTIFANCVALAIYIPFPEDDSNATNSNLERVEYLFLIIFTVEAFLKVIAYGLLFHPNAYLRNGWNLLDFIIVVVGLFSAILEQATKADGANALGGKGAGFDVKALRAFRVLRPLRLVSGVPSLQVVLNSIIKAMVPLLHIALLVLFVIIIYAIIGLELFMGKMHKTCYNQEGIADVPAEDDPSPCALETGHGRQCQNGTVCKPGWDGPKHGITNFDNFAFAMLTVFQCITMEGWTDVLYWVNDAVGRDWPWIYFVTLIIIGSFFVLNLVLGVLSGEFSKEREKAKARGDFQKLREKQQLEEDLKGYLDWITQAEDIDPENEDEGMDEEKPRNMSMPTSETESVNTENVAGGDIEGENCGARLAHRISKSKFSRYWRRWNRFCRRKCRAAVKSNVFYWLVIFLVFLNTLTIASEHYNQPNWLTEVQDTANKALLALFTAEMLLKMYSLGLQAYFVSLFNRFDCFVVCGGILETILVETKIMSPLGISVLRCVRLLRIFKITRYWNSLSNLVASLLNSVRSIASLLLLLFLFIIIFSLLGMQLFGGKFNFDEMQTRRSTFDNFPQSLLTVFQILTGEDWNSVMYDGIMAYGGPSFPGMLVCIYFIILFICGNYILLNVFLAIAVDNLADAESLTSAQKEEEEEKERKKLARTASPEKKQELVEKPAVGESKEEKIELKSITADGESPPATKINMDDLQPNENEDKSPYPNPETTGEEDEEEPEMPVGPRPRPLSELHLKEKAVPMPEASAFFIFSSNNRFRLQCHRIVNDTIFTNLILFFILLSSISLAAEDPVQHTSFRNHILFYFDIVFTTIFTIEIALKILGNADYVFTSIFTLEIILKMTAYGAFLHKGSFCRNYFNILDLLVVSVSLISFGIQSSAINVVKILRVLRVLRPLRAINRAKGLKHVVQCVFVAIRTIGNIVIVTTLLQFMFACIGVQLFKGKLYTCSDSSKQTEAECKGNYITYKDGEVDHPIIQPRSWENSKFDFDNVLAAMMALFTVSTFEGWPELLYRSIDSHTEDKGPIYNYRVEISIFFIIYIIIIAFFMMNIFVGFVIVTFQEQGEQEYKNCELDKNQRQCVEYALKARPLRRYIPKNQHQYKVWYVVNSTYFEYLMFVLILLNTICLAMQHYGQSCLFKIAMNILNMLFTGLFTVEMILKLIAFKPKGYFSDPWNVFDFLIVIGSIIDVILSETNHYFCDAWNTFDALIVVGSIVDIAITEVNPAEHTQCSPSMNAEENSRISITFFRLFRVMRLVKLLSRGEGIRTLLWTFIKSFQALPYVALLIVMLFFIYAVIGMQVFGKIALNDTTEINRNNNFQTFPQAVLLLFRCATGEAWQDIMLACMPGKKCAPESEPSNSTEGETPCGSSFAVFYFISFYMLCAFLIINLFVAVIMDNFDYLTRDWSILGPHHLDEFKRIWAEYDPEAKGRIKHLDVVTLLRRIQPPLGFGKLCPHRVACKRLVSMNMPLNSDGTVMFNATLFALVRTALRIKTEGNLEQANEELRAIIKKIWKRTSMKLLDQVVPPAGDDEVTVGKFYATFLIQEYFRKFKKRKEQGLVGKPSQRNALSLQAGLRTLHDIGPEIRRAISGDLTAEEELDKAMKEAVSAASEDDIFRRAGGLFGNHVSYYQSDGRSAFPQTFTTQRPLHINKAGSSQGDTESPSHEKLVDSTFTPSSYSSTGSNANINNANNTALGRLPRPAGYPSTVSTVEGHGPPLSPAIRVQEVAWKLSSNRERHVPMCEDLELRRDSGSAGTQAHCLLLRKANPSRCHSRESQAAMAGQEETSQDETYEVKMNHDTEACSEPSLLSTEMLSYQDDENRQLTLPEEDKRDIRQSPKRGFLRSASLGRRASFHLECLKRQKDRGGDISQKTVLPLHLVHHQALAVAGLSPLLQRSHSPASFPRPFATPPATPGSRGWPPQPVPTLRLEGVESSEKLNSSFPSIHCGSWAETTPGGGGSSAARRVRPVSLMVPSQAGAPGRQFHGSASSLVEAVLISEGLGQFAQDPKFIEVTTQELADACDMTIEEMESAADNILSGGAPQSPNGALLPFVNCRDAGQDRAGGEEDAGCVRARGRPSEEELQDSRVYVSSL

The target of this assay is human Cav1.2 (Homo sapiens, UniProt Q13936).

As for `COC(=O)C1=C(C)NC(C)=C(C(=O)OC)C1c1ccccc1[N+](=O)[O-]` [nifedipine], the IC50 result is “The IC50 values of nifedipine and verapamil remained similar with or without MNI-1”.
